# According to US20120288536:
# Chains of the proteins cited; added tags and fusions are not shown.
# UniProt P40763, whole entry: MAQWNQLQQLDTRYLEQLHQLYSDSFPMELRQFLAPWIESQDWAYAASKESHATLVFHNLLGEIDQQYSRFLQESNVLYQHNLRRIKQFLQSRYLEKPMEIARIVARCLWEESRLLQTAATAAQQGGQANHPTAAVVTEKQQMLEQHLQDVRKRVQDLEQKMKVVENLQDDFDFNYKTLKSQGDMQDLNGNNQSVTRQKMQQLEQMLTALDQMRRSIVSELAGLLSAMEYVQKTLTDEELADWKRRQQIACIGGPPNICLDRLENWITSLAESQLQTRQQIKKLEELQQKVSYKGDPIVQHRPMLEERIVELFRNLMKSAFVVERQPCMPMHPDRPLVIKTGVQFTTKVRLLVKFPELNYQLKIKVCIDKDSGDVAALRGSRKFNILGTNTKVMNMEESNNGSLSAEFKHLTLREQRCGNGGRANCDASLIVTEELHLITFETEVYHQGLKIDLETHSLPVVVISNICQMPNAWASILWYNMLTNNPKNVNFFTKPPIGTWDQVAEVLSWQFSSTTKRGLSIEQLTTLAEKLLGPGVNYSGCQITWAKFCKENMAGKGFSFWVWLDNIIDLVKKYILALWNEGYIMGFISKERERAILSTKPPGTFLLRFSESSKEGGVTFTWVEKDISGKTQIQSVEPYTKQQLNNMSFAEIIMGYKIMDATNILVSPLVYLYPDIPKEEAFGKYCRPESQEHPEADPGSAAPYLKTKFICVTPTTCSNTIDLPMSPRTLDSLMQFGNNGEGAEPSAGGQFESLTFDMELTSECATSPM
# Tests used:
# STAT3 = STAT3 (UniProt P40763); assay: EMSA; conditions: variant of STAT3 decoy (hSIE)
# [1] = molecular target: pSTAT3 (tyrosine-phosphorylated STAT3) (UniProt P40763); assay: SPR; conditions: LNA x3 at 5' end of sense and 3' end of antisense; LNA x2 at 3' end of sense and 5' end of antisense; C-18 spacer linking strands; decoy with 10 LNA did not bind STAT3; tested 5-80 uM; purified recombinant protein; synthetic backbone; variant of parent STAT3 decoy (PTO)
# [2] = molecular target: STAT3 (endogenous, UM-22B HNSCC cells) (UniProt P40763); assay: activity in cells; conditions: protein in cells
# [3] = molecular target: pSTAT3 (tyrosine-phosphorylated STAT3) (UniProt P40763); assay: EMSA; conditions: one LNA at 5' end of one strand and one at 3' end of the other; C-18 spacer linking strands; bound as well as parent decoy; 6% PAGE-TBE, SYBR Gold; purified recombinant protein; synthetic backbone; variant of parent STAT3 decoy (PTO)
Sequence,binding result (STAT3),further results
CAGTTCCCTTAAATC (double strand) [SIE],binds more weakly,
CATTTCACGTCAATC (double strand) [Mutant 7],binds more weakly,
CATTTCCCGTAAATC (double strand) [LNA decoy],,binding result [1]: no binding
CATTTCACGTAAATC (double strand) [Mutant 2],binds more weakly,
CATTTCCCGTCAATC (double strand) [Mutant 4],binds more weakly,
CATTTCCCGTAAATC (double strand) [parent STAT3 decoy (PTO)],,"activity on this sequence ([2]; PS first three and last three bases of both strands, duplex inhibits hSIE luciferase reporter at 12.6 nM, single strands do not suffice, variant of STAT3 decoy (hSIE)): active"
CAGTTCACGTAAATC (double strand) [Mutant 5],binds more weakly,
CAGTTCACGTCAATC (double strand) [Mutant 9],binds more weakly,
CATTTCCCTTCAATC (double strand) [Mutant 8],binds more weakly,
CATTTCCCGTAAATC (double strand) [LNA-1],,binding result [3]: binds
CAGTTCCCGTCAATC (double strand) [Mutant 6],binds more weakly,
CATTTCCCGTAAATCGAAAGATTTACGGGAAATG [DH4S],,"activity on this sequence ([2]; PS x3 at 5' end of one strand and 3' end of the other, downmodulation of hSIE reporter comparable to parent decoy, 12.6 nM, folded or branched DNA, variant of parent STAT3 decoy (PTO)): active"
CAGTTCCCTTCAATC (double strand) [Mutant 10],binds more weakly,
CAGTTCCCGTAAATC (double strand) [Mutant 1],binds more weakly,

# For some assays here: No signal at the amounts used counts as a negative. For some assays here: Weaker means in comparison with the reference protein, sequence or condition of that experiment. For some assays here: The exact form of at least one protein or probe is not confirmed.
